Source: patent publication US20090088411A1, “No-donating corticosteroid with improved pharmacokinetic, anti-inflammatory and vasodilatory properties” (Topigen Pharmaceuticals Inc., priority 2007, published 2009)
At least one compound was matched to its structure with a doubt left.

Legend:
sputum neutrophils = test: Sputum differential cell count: neutrophils; type: in vivo, humans; settings: patients with high neutrophils at baseline
Source text: A clinical study was undertaken in humans to test certain aspects of a preferred NO-donating budesonide derivative, TPI-1020, as compared to the corticosteroid, budesonide which was not modified with a NO-donating moiety. Specifically, the objectives of this study were to determine the safety, pharmacodynamic and pharmacokinetic activity of multiple doses of inhaled NO-donating budesonide derivatives compared to that of equimolar doses of inhaled budesonide in subjects with mild asthma who smoke. We chose patients with asthma who smoke since these patients had reported to have not only an increase in eNO but also an increase in neutrophils within their sputum (as described in COPD). While assessing the safety of these compounds in such patients we could thus explore the effects of the same in patients with increased sputum neutrophils.
Although this study was only powered for neutrophils, the following parameters were also evaluated: sputum total cell and differential cell counts, using known methods, on days 0, 15 and day 22; pre-dose FEV1 measurements on days 0, 1, 14, 15 and 22; peak flow measurements throughout the study (miniwright meter); use of daily rescue medication (salbutamol) throughout the study; the response to methacholine challenge test; and the eNO levels (chemiluminescence after reaction with ozone) on days 0, 15 and 22 and plasma CRP levels on days 0, 15 and 22. […]

neutrophils = test: Guinea pig model of LPS induced lung inflammation; type: in vivo
[1] = Supine and standing blood pressure (vital signs), clinical study; type: in vivo, humans; settings: over the 22 day period, vs baseline
Protocol: Those subjects who completed the 14-day run-in period were assigned to receive either an inhaled version of a compound of the present invention (in this case, budesonide 21-(4′-nitrooxymethyl)benzoate, designated hereafter as “TPI-1020”) or budesonide over a 21-day period. The doses administered were based on equimolar amounts of budesonide and were as follows: budesonide 400 μg bid for 14 days then 800 μg bid for 7 days; TPI-1020: 600 μg bid for 14 days then 1200 μg bid for 7 days. Study treatments were delivered in lactose-based blends using the capsule-based Aeroliser dry powder inhaler. Budesonide capsules (Miflonide®, Novartis Pharmaceuticals) delivered 383 μg as compared to 423 μg of budesonide for TPI-1020 (equivalent to 9.5% more budesonide delivered to the body in the TPI-1020 group). However, the fine particle dose of budesonide was 104 μg for the budesonide capsules and only 78 μg for the TPI-1020 capsules (equivalent to 25% less budesonide delivered to the lung in the TPI-1020 group). No other asthma medication except rescue salbutamol was permitted during the study.

SMILES: CCCC1O[C@@H]2C[C@H]3[C@@H]4CCC5=CC(=O)C=C[C@]5(C)[C@H]4[C@@H](O)C[C@]3(C)[C@]2(C(=O)CO)O1 (stereo partly drawn) [budesonide, reference compound]
- patients in whom sputum neutrophils decreased to <30% (sputum neutrophils): none
- recruitment of neutrophils into the lungs (neutrophils): without effect
- effect on blood pressure values [1]: no significant effects
